Source: patent US20040116333A1 (ABGENOMICS COOPERATIEF U A, published 2004)
No constants are given. Whether binding was seen depends on the method and setting. Some results given as binding are weak or reduced against the parent protein; the word gives no strength. Sequences can lack the tags named with a protein.

Molecular target: T1, mouse P-selectin glycoprotein ligand-1 (PSGL-1), first designated T cell apoptosis inducing protein (TAIP) (mouse) (UniProt Q62170)
T1 sequence (looked up): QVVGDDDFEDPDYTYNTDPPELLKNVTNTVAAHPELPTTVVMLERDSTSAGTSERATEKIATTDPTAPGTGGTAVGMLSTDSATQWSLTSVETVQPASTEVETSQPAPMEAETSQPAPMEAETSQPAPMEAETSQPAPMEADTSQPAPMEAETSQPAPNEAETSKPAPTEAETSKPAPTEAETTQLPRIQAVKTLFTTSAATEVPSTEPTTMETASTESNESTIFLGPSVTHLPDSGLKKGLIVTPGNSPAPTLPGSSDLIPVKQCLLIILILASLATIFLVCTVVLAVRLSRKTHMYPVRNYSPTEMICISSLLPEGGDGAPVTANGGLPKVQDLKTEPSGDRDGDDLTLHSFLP
Assay: flow cytometry on Con A-activated mouse T cells, FITC-anti human IgG Fc detection

binding: binds
B1: recombinant mouse E-selectin/Fc chimera (R&D Systems) (Fc fusion, not shown: a dimerising Fc or GST)
chain (part 1 of 2): WYYNASSELMTYDEASAYCQRDYTHLVAIQNKEEINYLNSNLKHSPSYYWIGIRKVNNVWIWVGTGKPLTEEAQNWAPGEPNNKQRNEDCVEIYIQRTKDSGMWNDERCNKKKLALCYTASCTNASCSGHGECIETINSYTCKCHPGFLGPNCEQAVTCKPQEHPDYGSLNCSHPFGPFSYNSSCSFGCKRGYLPSSMETTVRCTSSGEWSAPAPACHVVECEALTHPAHGIRKCSSNPGSYPWNTTCTFDCVEGYRRVGAQNLQCTSSGIWDNETPSCKAVTCDAIPQPQNGFVSCSHSTAGELAFKSSCNFTCEQSFTLQGPAQVECSAQGQWTPQIPVCKAVQCEALSAPQQGNMKCLPSASGPFQNGSSCEFSCEEGFELKGSRRLQCGPRGEWDSKKPTCSAVKCDDVPRPQNGVMECAHATTGEFTYKSSCAFQCNEGFSLHGSAQLECTSQGKWTQEVPSCQVVQCPSLDVPGKMNMSCSGTAVFGTVCEFTCPDDWTLNGSAVLTCGATGRWSGMPPTCEAPVSPTRPIEGRMD
chain (part 2 of 2): HHHHHH
